Measurements: publication PMC7193563
These are yes or no findings as the source states them, for the method shown. In cells and extracts the contact can be indirect. Some results given as binding are weak or reduced against the parent protein; the word gives no strength.

Sequences of proteins named here, by UniProt entry; tags and fusion partners are left off.
UniProt P35222: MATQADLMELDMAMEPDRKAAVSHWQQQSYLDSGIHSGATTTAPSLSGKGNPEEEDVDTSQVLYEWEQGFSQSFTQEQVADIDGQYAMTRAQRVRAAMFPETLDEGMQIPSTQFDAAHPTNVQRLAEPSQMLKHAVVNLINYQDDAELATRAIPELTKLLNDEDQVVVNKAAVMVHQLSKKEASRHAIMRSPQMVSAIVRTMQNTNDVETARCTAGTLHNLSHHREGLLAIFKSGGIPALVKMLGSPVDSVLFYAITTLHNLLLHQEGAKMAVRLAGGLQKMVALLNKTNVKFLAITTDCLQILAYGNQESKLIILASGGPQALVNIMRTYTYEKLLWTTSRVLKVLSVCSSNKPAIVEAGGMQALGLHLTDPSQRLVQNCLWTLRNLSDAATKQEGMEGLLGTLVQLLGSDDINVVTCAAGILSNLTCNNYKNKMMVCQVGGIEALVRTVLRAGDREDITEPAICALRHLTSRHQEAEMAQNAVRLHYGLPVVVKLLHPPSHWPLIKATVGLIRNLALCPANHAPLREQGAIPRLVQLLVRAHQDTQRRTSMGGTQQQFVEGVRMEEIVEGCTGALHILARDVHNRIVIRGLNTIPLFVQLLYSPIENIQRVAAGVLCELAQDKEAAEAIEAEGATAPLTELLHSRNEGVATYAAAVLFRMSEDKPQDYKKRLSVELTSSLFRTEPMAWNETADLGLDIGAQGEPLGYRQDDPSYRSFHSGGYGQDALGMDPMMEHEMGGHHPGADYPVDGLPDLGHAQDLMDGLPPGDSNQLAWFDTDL
UniProt Q13547: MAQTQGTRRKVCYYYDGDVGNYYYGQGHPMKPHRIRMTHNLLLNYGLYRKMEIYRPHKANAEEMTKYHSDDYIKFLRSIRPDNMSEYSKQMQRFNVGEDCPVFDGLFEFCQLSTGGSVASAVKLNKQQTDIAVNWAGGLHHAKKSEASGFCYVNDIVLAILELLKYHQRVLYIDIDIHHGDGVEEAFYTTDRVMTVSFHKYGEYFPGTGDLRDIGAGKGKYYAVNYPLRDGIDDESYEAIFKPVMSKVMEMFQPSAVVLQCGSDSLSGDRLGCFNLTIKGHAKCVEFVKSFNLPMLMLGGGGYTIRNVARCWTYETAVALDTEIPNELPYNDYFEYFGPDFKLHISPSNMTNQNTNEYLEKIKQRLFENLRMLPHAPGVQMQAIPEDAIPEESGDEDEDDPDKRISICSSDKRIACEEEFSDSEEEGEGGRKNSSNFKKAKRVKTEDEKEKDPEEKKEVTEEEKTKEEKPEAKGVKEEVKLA
UniProt Q9UBN7: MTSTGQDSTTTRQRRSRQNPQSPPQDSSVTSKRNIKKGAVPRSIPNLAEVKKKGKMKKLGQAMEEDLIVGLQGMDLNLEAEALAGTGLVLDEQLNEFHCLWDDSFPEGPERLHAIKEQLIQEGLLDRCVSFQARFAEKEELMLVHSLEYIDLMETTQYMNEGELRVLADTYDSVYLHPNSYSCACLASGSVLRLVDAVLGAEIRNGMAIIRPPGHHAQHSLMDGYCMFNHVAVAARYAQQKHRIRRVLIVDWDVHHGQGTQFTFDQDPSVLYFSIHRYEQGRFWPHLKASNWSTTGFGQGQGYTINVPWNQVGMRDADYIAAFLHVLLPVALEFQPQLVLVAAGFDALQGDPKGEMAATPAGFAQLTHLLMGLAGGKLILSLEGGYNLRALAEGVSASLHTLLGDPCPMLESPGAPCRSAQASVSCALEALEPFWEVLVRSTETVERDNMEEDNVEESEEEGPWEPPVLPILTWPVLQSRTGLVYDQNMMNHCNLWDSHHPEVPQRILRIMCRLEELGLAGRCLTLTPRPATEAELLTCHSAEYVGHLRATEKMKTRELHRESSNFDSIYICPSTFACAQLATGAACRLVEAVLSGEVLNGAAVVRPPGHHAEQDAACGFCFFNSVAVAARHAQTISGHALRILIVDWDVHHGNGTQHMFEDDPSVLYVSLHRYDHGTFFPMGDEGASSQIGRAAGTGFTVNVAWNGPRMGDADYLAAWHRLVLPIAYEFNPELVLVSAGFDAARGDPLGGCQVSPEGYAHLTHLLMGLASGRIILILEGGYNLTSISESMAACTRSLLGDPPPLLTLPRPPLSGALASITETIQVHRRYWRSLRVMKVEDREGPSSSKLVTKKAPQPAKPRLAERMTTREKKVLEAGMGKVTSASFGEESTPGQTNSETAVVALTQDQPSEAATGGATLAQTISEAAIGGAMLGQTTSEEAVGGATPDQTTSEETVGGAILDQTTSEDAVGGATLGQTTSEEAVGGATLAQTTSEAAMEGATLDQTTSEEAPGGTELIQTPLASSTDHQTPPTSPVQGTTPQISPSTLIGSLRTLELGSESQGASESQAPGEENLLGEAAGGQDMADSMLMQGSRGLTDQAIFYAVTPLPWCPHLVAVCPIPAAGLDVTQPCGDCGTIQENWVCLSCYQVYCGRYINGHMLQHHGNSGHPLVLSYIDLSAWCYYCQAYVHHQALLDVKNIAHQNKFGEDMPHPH

Tests used:
[1] = target: endogenous β-catenin (human (endogenous in HCT116)) (UniProt P35222); assay: co-IP; lysates of control and Bcl-3-silenced HCT116 cells, IP with anti-β-catenin antibody, immunoblot; endogenous proteins
[2] = target: T1, endogenous Bcl-3 (B-cell lymphoma 3) (human (endogenous in HCT116)) (UniProt P20749); assay: co-IP; HCT116 cell lysates, IP with anti-Bcl-3 antibody, immunoblot; endogenous proteins
T1 sequence: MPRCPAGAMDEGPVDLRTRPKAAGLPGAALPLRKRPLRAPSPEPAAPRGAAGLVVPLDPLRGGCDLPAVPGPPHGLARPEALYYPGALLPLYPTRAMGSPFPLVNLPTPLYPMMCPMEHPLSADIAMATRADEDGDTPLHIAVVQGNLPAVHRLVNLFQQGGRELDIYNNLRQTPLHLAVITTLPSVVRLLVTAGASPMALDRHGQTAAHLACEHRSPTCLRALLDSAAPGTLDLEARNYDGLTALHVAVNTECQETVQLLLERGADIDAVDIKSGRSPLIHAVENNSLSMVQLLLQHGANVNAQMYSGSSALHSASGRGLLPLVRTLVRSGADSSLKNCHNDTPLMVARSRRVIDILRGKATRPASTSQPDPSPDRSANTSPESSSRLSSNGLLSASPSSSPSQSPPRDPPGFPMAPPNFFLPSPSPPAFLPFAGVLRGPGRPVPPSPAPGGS

## HDAC-1 (histone deacetylase 1) (from UniProt Q13547 1-482) (enzyme)
[1]
  binding: binds

## HDAC-6 (from UniProt Q9UBN7 1-1215) (enzyme)
[1]
  binding: binds

## endogenous β-catenin (from UniProt P35222 1-781)
[2]
  binding: binds

B1: endogenous Bcl-3 (B-cell lymphoma 3) (protein, UniProt P20749 1-454)
chain: T1 sequence
[1]
  binding: binds
